Laboratory results published in patent US7759399B2, “Pharmaceutical compositions” (priority 2002, dated 2010).
The name of at least one read-out is uncertain.

System: HSF
Test: HSF luciferase reporter assay, HeLa cell clone 13B (human hsp70 promoter)
Assay type: cell-based
Settings: HeLa clone 13B, 8 h treatment, serum-free medium
Method: Method: HeLa cell clone 13B, stably transfected with a luciferase reporter plasmid controlled by the human hsp70 promoter, and HeLa κB-transformed cells, stably transfected with a luciferase reporter plasmid controlled by a synthetic NF-κB-STM construct, were maintained in DMEM medium supplemented with 10% FBS, L-glutamine (2 mM) and G418 (250 μg/ml) at 37° C. in a 5% CO2 humidified atmosphere.
Cells were seeded at a density of 4×10^4 cells/well in 96-well plates. After 18-20 h, the medium was removed and cells were treated for 8 h with the test compounds (100 μl) at the appropriate dilutions in serum-free medium. For the NF-κB-dependent reporter gene assay, cells were stimulated with TPA (25 ng/ml) 2 h after exposure to the compounds.
After incubation, the medium was removed and cells were lysed in 10 μl of lysis buffer. The luciferase activity was determined by adding 100 μl of substrate and measuring the release of light using a Victor 1420 microplate reader (Wallac, Finland).
The AC200/μM for HSF is the concentration at which the tested compound doubled the HSF activity in this assay. The IC50/μM for NF-κB is the concentration at which the tested compound halved the NF-κB activity in this assay.

**Q.** With CC(C)(C)C(=O)O[C@H]1[C@H](Sc2ccc3ccccc3c2)CC(=O)C1(C)C (stereo in doubt) [CTM-192, 2,2-dimethylpropionic acid (1R,5R)-2,2-dimethyl-5-(naphthalen-2-ylsulfanyl)-3-oxocyclopentyl ester] as the molecule, how does the “HSF; AC200 (concentration at which the compound doubled the HSF activity)” value read?
**A.** 23 µM
